Test results taken from doi:10.1101/2022.09.01.506096.
Results are given in words; binding and its absence hold for the method and conditions named. For some of these results: Binding seen in cells or lysates may run through a third protein. Some entries that bind do so weakly or less than the wild type. For some of these results: Sequences can lack the tags named with a protein.

By UniProt entry, the sequences of proteins in these tests, tags left out.
UniProt O60488: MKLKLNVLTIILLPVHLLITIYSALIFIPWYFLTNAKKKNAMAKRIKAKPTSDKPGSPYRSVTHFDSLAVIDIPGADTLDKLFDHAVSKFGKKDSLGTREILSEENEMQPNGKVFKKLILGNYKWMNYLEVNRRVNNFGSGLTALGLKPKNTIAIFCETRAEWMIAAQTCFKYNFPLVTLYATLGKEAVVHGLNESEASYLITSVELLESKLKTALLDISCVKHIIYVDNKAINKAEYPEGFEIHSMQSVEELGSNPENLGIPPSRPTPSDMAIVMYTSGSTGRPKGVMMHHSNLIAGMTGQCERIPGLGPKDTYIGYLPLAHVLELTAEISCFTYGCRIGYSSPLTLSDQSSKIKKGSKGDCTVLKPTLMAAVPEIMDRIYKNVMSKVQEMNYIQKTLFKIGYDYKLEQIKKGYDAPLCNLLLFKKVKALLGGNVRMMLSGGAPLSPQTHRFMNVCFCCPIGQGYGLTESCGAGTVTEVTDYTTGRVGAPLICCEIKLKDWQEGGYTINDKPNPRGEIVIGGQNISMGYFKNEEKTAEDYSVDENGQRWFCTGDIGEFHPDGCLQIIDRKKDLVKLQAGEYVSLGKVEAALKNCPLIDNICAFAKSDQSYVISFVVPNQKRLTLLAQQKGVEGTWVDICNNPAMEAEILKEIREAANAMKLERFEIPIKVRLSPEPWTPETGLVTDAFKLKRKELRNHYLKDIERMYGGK

Assays:
[1] = biological target: acyl-CoA synthetase long-chain family member 4 (ACSL4) (human (endogenous in OVCAR-8)) (UniProt O60488); experiment: co-IP
[2] = biological target: T1, MBOAT7 MaMTH bait (membrane-bound O-acyltransferase family member 7) (UniProt Q96N66); experiment: two-hybrid
T1 sequence: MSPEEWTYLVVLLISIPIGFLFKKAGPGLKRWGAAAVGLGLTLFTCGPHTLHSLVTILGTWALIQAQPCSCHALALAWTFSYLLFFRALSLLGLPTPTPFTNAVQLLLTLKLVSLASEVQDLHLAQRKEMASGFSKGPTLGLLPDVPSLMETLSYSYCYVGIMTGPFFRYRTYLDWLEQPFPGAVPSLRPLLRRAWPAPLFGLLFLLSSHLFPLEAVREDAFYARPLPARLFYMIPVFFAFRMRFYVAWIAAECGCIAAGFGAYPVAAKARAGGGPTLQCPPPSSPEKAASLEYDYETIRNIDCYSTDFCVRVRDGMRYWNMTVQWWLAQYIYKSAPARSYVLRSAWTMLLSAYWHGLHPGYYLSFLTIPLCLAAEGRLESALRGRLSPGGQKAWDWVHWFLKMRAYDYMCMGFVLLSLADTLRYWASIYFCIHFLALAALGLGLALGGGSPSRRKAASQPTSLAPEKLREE

MMD MaMTH bait = biological target: T2, MMD MaMTH bait (UniProt Q15546); experiment: two-hybrid
T2 sequence: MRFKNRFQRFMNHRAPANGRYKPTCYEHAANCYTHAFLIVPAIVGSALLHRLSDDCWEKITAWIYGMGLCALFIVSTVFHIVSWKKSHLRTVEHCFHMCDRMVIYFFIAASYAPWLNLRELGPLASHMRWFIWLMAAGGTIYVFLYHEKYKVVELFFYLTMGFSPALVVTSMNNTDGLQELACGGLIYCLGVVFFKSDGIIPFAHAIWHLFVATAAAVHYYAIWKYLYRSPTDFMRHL

B1: HA-tagged monocyte-to-macrophage differentiation-related (MMD) protein (protein, UniProt Q15546 1-238)
chain: MRFKNRFQRFMNHRAPANGRYKPTCYEHAANCYTHAFLIVPAIVGSALLHRLSDDCWEKITAWIYGMGLCALFIVSTVFHIVSWKKSHLRTVEHCFHMCDRMVIYFFIAASYAPWLNLRELGPLASHMRWFIWLMAAGGTIYVFLYHEKYKVVELFFYLTMGFSPALVVTSMNNTDGLQELACGGLIYCLGVVFFKSDGIIPFAHAIWHLFVATAAAVHYYAIWKYLYRSPTDFMRHL
For B1, the binding [1] was “binds”.

B2: MMD MaMTH prey (protein, UniProt Q15546 1-238)
chain: MRFKNRFQRFMNHRAPANGRYKPTCYEHAANCYTHAFLIVPAIVGSALLHRLSDDCWEKITAWIYGMGLCALFIVSTVFHIVSWKKSHLRTVEHCFHMCDRMVIYFFIAASYAPWLNLRELGPLASHMRWFIWLMAAGGTIYVFLYHEKYKVVELFFYLTMGFSPALVVTSMNNTDGLQELACGGLIYCLGVVFFKSDGIIPFAHAIWHLFVATAAAVHYYAIWKYLYRSPTDFMRHL
B2 was tested, and the binding [2] was “binds”.

B3: calnexin (protein, UniProt P27824 21-592)
chain: HDGHDDDVIDIEDDLDDVIEEVEDSKPDTTAPPSSPKVTYKAPVPTGEVYFADSFDRGTLSGWILSKAKKDDTDDEIAKYDGKWEVEEMKESKLPGDKGLVLMSRAKHHAISAKLNKPFLFDTKPLIVQYEVNFQNGIECGGAYVKLLSKTPELNLDQFHDKTPYTIMFGPDKCGEDYKLHFIFRHKNPKTGIYEEKHAKRPDADLKTYFTDKKTHLYTLILNPDNSFEILVDQSVVNSGNLLNDMTPPVNPSREIEDPEDRKPEDWDERPKIPDPEAVKPDDWDEDAPAKIPDEEATKPEGWLDDEPEYVPDPDAEKPEDWDEDMDGEWEAPQIANPRCESAPGCGVWQRPVIDNPNYKGKWKPPMIDNPSYQGIWKPRKIPNPDFFEDLEPFRMTPFSAIGLELWSMTSDIFFDNFIICADRRIVDDWANDGWGLKKAADGAAEPGVVGQMIEAAEERPWLWVVYILTVALPVFLVILFCCSGKKQTSGMEYKKTDAPQPDVKEEEEEKEEEKDKGDEEEEGEEKLEEKQKSDAEEDGGTVSQEEEDRKPKAEEDEILNRSPRNRKPRRE
In the case of B3, the binding [1] is reported as “no binding”.

B4: MBOAT7 MaMTH prey (membrane-bound O-acyltransferase family member 7) (enzyme, UniProt Q96N66 1-472)
chain: MSPEEWTYLVVLLISIPIGFLFKKAGPGLKRWGAAAVGLGLTLFTCGPHTLHSLVTILGTWALIQAQPCSCHALALAWTFSYLLFFRALSLLGLPTPTPFTNAVQLLLTLKLVSLASEVQDLHLAQRKEMASGFSKGPTLGLLPDVPSLMETLSYSYCYVGIMTGPFFRYRTYLDWLEQPFPGAVPSLRPLLRRAWPAPLFGLLFLLSSHLFPLEAVREDAFYARPLPARLFYMIPVFFAFRMRFYVAWIAAECGCIAAGFGAYPVAAKARAGGGPTLQCPPPSSPEKAASLEYDYETIRNIDCYSTDFCVRVRDGMRYWNMTVQWWLAQYIYKSAPARSYVLRSAWTMLLSAYWHGLHPGYYLSFLTIPLCLAAEGRLESALRGRLSPGGQKAWDWVHWFLKMRAYDYMCMGFVLLSLADTLRYWASIYFCIHFLALAALGLGLALGGGSPSRRKAASQPTSLAPEKLREE
In the case of B4, the binding (MMD MaMTH bait) is reported as “binds”.
